Measured values published in PubChem BioAssay AID248 (DTP/NCI, 2004).
The list does not hold the whole screen: it is rich in T/C values a quarter to a half above the control, in often repeated tests (any T/C) and in doses without a T/C. Other doses and runs of a compound stand elsewhere. T/C gives the treated animals as a percentage of the vehicle group. Some doses have a count of surviving animals in place of a T/C: the source files T/C as zero there, which appears to mark a toxic dose or a test without result, not a measured value. Some doses without a T/C left all or most animals alive at the check, yet need not have been tolerated: survival well below the control is almost never listed, so the zero probably covers shortened survival too. Survivors were counted at the toxicity check, usually on the fifth day, unless a day is given; later deaths do not show. Schedule codes are those of the source, read here as Q, the interval in days (D) or hours (H), X, the number of doses. Some doses were run more than once; their values stand side by side, smallest first. Some schedule codes hold Z or #, which are not explained here. Where survival is the endpoint, this PubChem deposit counts one and a half times the control or more as active, and values a quarter to a half above the control carry no call in these data; other NCI protocols may use other cut-offs. Counts like (3×) say how often a value occurs here. Some T/C values are followed by the survivors on the day toxicity was checked, most often the fifth; where none is given, no animal had died by that day.

Test system: L1210 leukemia ip in BDF1 mice, survival T/C
Assay: NCI In Vivo Anticancer Drug Screen. Data for tumor model L1210 Leukemia (intraperitoneal) in B6D2F1 (BDF1) mice
Conditions: T/C endpoint: mean survival time, higher T/C = longer survival
[1] = dose: 12.0 micrograms/kg/injection, schedule: Q01DX Z (ip), vehicle: carboxymethylcellulose (CMC)
[2] = dose: 18.0 micrograms/kg/injection, schedule: Q01DX Z (ip), vehicle: carboxymethylcellulose (CMC)

## Cc1c2oc3c(C)ccc(C(=O)N[C@@H]4C(=O)N[C@H](C(C)C)C(=O)N5CCC[C@H]5C(=O)N(C)CC(=O)N(C)[C@@H](C(C)C)C(=O)O[C@H]4C)c3nc-2c(C(=O)N[C@@H]2C(=O)N[C@H](C(C)C)C(=O)N3CCC[C@H]3C(=O)N(C)CC(=O)N(C)[C@@H](C(C)C)C(=O)O[C@H]2C)c(N)c1=O
dose: 0.02 mg/kg/injection, schedule: Q01DX009 (ip), vehicle: water, evaluated on day 5
  T/C: 134 % of control
dose: 0.02 mg/kg/injection, schedule: Q01DX009 (ip), vehicle: water, evaluated on day 60
  T/C: 134 % of control
dose: 0.02 mg/kg/injection, schedule: Q01DX Z (ip), vehicle: saline
  T/C: 125 and 133 % of control
dose: 0.03 mg/kg/injection, schedule: Q01DX009 (ip), vehicle: water, evaluated on day 5
  T/C: 140 % of control
dose: 0.03 mg/kg/injection, schedule: Q01DX009 (ip), vehicle: water, evaluated on day 60
  T/C: 140 % of control
dose: 0.03 mg/kg/injection, schedule: Q01DX Z (ip), vehicle: saline
  T/C: 125 and 142 % of control
dose: 0.04 mg/kg/injection, schedule: Q01DX Z (ip), vehicle: carboxymethylcellulose (CMC)
  T/C: 141 % of control
dose: 0.04 mg/kg/injection, schedule: Q02DX010 (ip), vehicle: carboxymethylcellulose (CMC)
  T/C: 125 and 127 % of control
dose: 0.04 mg/kg/injection, schedule: Q02DX010 (ip), vehicle: saline
  T/C: 116, 124, 125, 129 % of control
dose: 0.05 mg/kg/injection, schedule: Q01DX009 (ip), vehicle: other
  T/C: 125 % of control
dose: 0.05 mg/kg/injection, schedule: Q01DX009 (ip), vehicle: saline + alcohol
  T/C: 140 % of control
dose: 0.05 mg/kg/injection, schedule: Q01DX Z (ip), vehicle: saline
  T/C: 141 and 142 % of control
dose: 0.07 mg/kg/injection, schedule: Q02DX010 (ip), vehicle: carboxymethylcellulose (CMC)
  T/C: 127 % of control (2×)
dose: 0.07 mg/kg/injection, schedule: Q02DX010 (ip), vehicle: other
  T/C: 129 % of control
dose: 0.07 mg/kg/injection, schedule: Q02DX010 (ip), vehicle: saline
  T/C: 122, 127 (2×), 182 % of control
dose: 0.07 mg/kg/injection, schedule: Q04DX003 (ip), vehicle: saline + alcohol
  T/C: 132 % of control
dose: 0.08 mg/kg/injection, schedule: Q01DX Z (ip), vehicle: carboxymethylcellulose (CMC)
  T/C: 141 % of control [9 of 10 alive]
dose: 0.1 mg/kg/injection, schedule: Q01DX009 (ip), vehicle: saline
  T/C: 136 % of control
dose: 0.1 mg/kg/injection, schedule: Q02DX010 (ip), vehicle: carboxymethylcellulose (CMC)
  T/C: 127 and 139 % of control
dose: 0.1 mg/kg/injection, schedule: Q02DX010 (ip), vehicle: other
  T/C: 139 % of control
dose: 0.1 mg/kg/injection, schedule: Q02DX010 (ip), vehicle: saline
  T/C: 118, 131, 138, 143 % of control
dose: 0.12 mg/kg/injection, schedule: Q01DX Z (ip), vehicle: carboxymethylcellulose (CMC)
  survivor count: 9 of 10
dose: 0.15 mg/kg/injection, schedule: Q02DX010 (ip), vehicle: carboxymethylcellulose (CMC)
  T/C: 140 % of control
dose: 0.15 mg/kg/injection, schedule: Q02DX010 (ip), vehicle: saline
  T/C: 83, 109, 134, 137 % of control
dose: 0.15 mg/kg/injection, schedule: Q04DX003 (ip), vehicle: saline + alcohol
  T/C: 131 % of control
dose: 0.16 mg/kg/injection, schedule: Q01DX Z (ip), vehicle: carboxymethylcellulose (CMC)
  survivor count: 10 of 10
dose: 0.2 mg/kg/injection, schedule: Q01DX001 (ip), vehicle: saline + alcohol
  T/C: 127 % of control
dose: 0.2 mg/kg/injection, schedule: Q01DX009 (ip), vehicle: other
  survivor count: 6 of 6
dose: 0.2 mg/kg/injection, schedule: Q01DX010 (ip), vehicle: other
  survivor count: 5 of 6 and 6 of 6
dose: 0.2 mg/kg/injection, schedule: Q01DX Z (ip), vehicle: carboxymethylcellulose (CMC)
  survivor count: 8 of 10
dose: 0.2 mg/kg/injection, schedule: Q04DX003 (ip), vehicle: other
  T/C: 130 % of control
dose: 0.2 mg/kg/injection, schedule: Q04DX003 (ip), vehicle: water
  T/C: 125 % of control
dose: 0.23 mg/kg/injection, schedule: Q02DX010 (ip), vehicle: saline
  T/C: 69, 90, 102, 112 % of control
dose: 0.25 mg/kg/injection, schedule: Q01DX009 (ip), vehicle: saline
  survivor count: 3 of 6
dose: 0.26 mg/kg/injection, schedule: Q04DX003 (ip), vehicle: water, evaluated on day 5
  T/C: 146 % of control
dose: 0.26 mg/kg/injection, schedule: Q04DX003 (ip), vehicle: water, evaluated on day 30
  T/C: 141 % of control
dose: 0.3 mg/kg/injection, schedule: Q01DX001 (ip), vehicle: saline, evaluated on day 5
  T/C: 117 and 118 % of control
dose: 0.3 mg/kg/injection, schedule: Q01DX001 (ip), vehicle: saline, evaluated on day 60
  T/C: 117 and 118 % of control
dose: 0.3 mg/kg/injection, schedule: Q04DX003 (ip), vehicle: saline + alcohol
  T/C: 144 % of control
dose: 0.4 mg/kg/injection, schedule: Q01DX001 (ip), vehicle: saline + alcohol
  T/C: 129 % of control
dose: 0.4 mg/kg/injection, schedule: Q01DX001 (ip), vehicle: saline, evaluated on day 5
  T/C: 111 and 173 % of control
dose: 0.4 mg/kg/injection, schedule: Q01DX001 (ip), vehicle: saline, evaluated on day 46
  T/C: 134 % of control
dose: 0.4 mg/kg/injection, schedule: Q01DX001 (ip), vehicle: saline, evaluated on day 60
  T/C: 111, 130, 173 % of control
dose: 0.4 mg/kg/injection, schedule: Q01DX010 (ip), vehicle: other
  survivor count: 4 of 6 and 6 of 6
dose: 0.4 mg/kg/injection, schedule: Q04DX003 (ip), vehicle: other
  T/C: 127 % of control
dose: 0.4 mg/kg/injection, schedule: Q04DX003 (ip), vehicle: water
  T/C: 147 % of control
dose: 0.45 mg/kg/injection, schedule: Q## X004 (ip), vehicle: saline
  T/C: 137 % of control
dose: 0.5 mg/kg/injection, schedule: Q01DX001 (ip), vehicle: saline, evaluated on day 5
  T/C: 122 and 184 % of control
dose: 0.5 mg/kg/injection, schedule: Q01DX001 (ip), vehicle: saline, evaluated on day 60
  T/C: 122 and 184 % of control
dose: 0.5 mg/kg/injection, schedule: Q01DX009 (ip), vehicle: saline
  survivor count: 6 of 6
dose: 0.6 mg/kg/injection, schedule: Q01DX001 (ip), vehicle: saline, evaluated on day 5
  T/C: 125 and 127 % of control
dose: 0.6 mg/kg/injection, schedule: Q01DX001 (ip), vehicle: saline, evaluated on day 46
  T/C: 143 % of control
dose: 0.6 mg/kg/injection, schedule: Q01DX001 (ip), vehicle: saline, evaluated on day 60
  T/C: 125 and 127 % of control
dose: 0.67 mg/kg/injection, schedule: Q## X004 (ip), vehicle: saline
  T/C: 144 % of control
dose: 0.7 mg/kg/injection, schedule: Q01DX001 (ip), vehicle: saline, evaluated on day 5
  T/C: 141 % of control
dose: 0.7 mg/kg/injection, schedule: Q01DX001 (ip), vehicle: saline, evaluated on day 60
  T/C: 141 % of control
dose: 0.8 mg/kg/injection, schedule: Q01DX001 (ip), vehicle: saline + alcohol
  survivor count: 8 of 8
dose: 0.8 mg/kg/injection, schedule: Q01DX001 (ip), vehicle: saline, evaluated on day 5
  T/C: 134 % of control
dose: 0.8 mg/kg/injection, schedule: Q01DX001 (ip), vehicle: saline, evaluated on day 60
  T/C: 130 and 134 % of control
dose: 0.9 mg/kg/injection, schedule: Q01DX001 (ip), vehicle: saline
  T/C: 145 % of control
dose: 1.0 mg/kg/injection, schedule: Q04DX003 (ip), vehicle: saline
  survivor count: 4 of 6
dose: 1.3 mg/kg/injection, schedule: Q01DX001 (ip), vehicle: saline
  T/C: 126 % of control [7 of 10 alive]
dose: 1.6 mg/kg/injection, schedule: Q01DX001 (ip), vehicle: saline + alcohol
  survivor count: 3 of 8
dose: 1.8 mg/kg/injection, schedule: Q## X032 (ip), vehicle: saline
  T/C: 136 % of control
dose: 2.0 mg/kg/injection, schedule: Q01DX001 (ip), vehicle: saline
  survivor count: 1 of 10
dose: 2.0 mg/kg/injection, schedule: Q04DX003 (ip), vehicle: saline
  survivor count: 1 of 6
dose: 3.0 mg/kg/injection, schedule: Q01DX001 (ip), vehicle: saline
  survivor count: 1 of 10
dose: 3.0 mg/kg/injection, schedule: Q#A X Z (ip), vehicle: saline
  T/C: 130 % of control
dose: 6.0 mg/kg/injection, schedule: Q#A X Z (ip), vehicle: other
  T/C: 131 % of control
dose: 6.0 mg/kg/injection, schedule: Q#A X Z (ip), vehicle: saline
  T/C: 130 % of control
dose: 12.5 mg/kg/injection, schedule: Q#A X Z (ip), vehicle: other
  T/C: 142 % of control
dose: 50.0 mg/kg/injection, schedule: Q#A X Z (ip), vehicle: other
  survivor count: 5 of 6
dose: 6.0 micrograms/kg/injection, schedule: Q01DX010 (ip), vehicle: other
  T/C: 109, 111, 112, 119 % of control
dose: 7.0 micrograms/kg/injection, schedule: Q01DX009 (ip), vehicle: saline
  T/C: 100, 104, 109, 124 % of control
dose: 12.0 micrograms/kg/injection, schedule: Q01DX010 (ip), vehicle: other
  T/C: 127 % of control
[1]
  T/C: 130 % of control
  survivor count: 1 of 6
dose: 12.0 micrograms/kg/injection, schedule: Q01DX Z (ip), vehicle: other
  T/C: 131 % of control
dose: 12.5 micrograms/kg/injection, schedule: Q01DX009 (ip), vehicle: saline + alcohol
  T/C: 132 % of control
dose: 12.5 micrograms/kg/injection, schedule: Q01DX Z (ip), vehicle: saline
  T/C: 142 % of control
dose: 15.0 micrograms/kg/injection, schedule: Q01DX009 (ip), vehicle: saline
  T/C: 109, 114, 117, 128 % of control
dose: 16.0 micrograms/kg/injection, schedule: Q01DX009 (ip), vehicle: water, evaluated on day 5
  T/C: 130 % of control
dose: 16.0 micrograms/kg/injection, schedule: Q01DX009 (ip), vehicle: water, evaluated on day 30
  T/C: 126 % of control
[2]
  T/C: 140 % of control
  survivor count: 0 of 6
dose: 19.0 micrograms/kg/injection, schedule: Q03DX Z (ip), vehicle: saline
  T/C: 132 % of control
dose: 20.0 micrograms/kg/injection, schedule: Q01DX015 (ip), vehicle: saline
  T/C: 128 % of control
dose: 25.0 micrograms/kg/injection, schedule: Q01DX009 (ip), vehicle: saline + alcohol, evaluated on day 30
  T/C: 135 % of control
dose: 25.0 micrograms/kg/injection, schedule: Q01DX009 (ip), vehicle: saline + alcohol, evaluated on day 60
  T/C: 135 % of control
dose: 25.0 micrograms/kg/injection, schedule: Q01DX010 (ip), vehicle: other
  T/C: 114, 123, 134, 145 % of control
dose: 25.0 micrograms/kg/injection, schedule: Q01DX Z (ip), vehicle: other
  T/C: 140 % of control
dose: 27.0 micrograms/kg/injection, schedule: Q01DX Z (ip), vehicle: carboxymethylcellulose (CMC)
  survivor count: 0 of 6
dose: 30.0 micrograms/kg/injection, schedule: Q01DX009 (ip), vehicle: saline
  T/C: 116, 121, 124, 131 % of control
dose: 30.0 micrograms/kg/injection, schedule: Q01DX015 (ip), vehicle: saline
  T/C: 133 % of control
